Data on five substances can be found in paper PMC3378952 (International Journal for Parasitology, 2012).

The data set is described as follows: general procedure: solution-phase peptide synthesis; EDCI, HOBt, DIEA.
[1] abbreviates: late stage modification step, HCl salt.
Where [2] appears, read: late stage modification step, HCl.

Some peptides are written in HELM: one residue between dots, names in brackets for other building blocks, links after the first $. Where no end group is shown, it is not given here. The star is where a group is joined. Fmoc = O=C(OCC1c2ccccc2-c2ccccc21)*; Boc = CC(C)(C)OC(=O)*; tBu = CC(C)(C)*

Consider “PEPTIDE1{[ac].K.I.T.A.[Abu-CO].[NH-cPr]}$$$$V2.0”, for which the step yield under setting [1] amounted to 95%.
In turn, Fmoc-K(Boc)IT(tBu)A-OMe had a step yield (coupling step, HCl) of 61%.
The substance “(10S,13S,16S,19S)-10-acetamido-16-((R)-1-tert-butoxyethyl)-13-sec-butyl-2,2,19-trimethyl-4,11,14,17-tetraoxo-3-oxa-5,12,15,18-tetraazaicosan-20-oic acid” had a step yield under setting [2] of 88%.
Regarding K(Boc)IT(tBu)A-OMe, the step yield under setting [2] was found to be 96%.
Consider “PEPTIDE1{[ac].K.I.T.A.[Ala-CO].[bAla]}$$$$V2.0”, for which the step yield under setting [1] stood at 70%.
